Assay results published in US20150197564A1.
These are yes or no findings as the source states them, for the method shown. Some results given as binding are weak or reduced against the parent protein; the word gives no strength.

Sequences of proteins named here, by UniProt entry; tags and fusion partners are left off. A change or cut given only in a name is not applied to a line headed by its entry.
UniProt Q9Y5C1: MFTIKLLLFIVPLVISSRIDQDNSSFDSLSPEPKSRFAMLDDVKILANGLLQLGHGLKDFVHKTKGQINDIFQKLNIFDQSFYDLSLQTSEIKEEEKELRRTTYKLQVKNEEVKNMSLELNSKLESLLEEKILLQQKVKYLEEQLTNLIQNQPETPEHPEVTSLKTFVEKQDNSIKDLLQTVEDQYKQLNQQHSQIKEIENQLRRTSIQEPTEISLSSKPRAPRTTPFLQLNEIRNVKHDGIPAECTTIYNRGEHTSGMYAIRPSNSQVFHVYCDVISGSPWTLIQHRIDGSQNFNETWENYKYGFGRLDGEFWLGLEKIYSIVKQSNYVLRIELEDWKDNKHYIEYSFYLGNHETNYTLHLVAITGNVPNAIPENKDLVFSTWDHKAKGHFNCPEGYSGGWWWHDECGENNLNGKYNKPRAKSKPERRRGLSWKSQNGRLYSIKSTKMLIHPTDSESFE

Experiments:
[1] = target: hANGPTL3(17-169)-mFc (human); test: SPR Biacore, 25C, pH 7.4
[2] = target: hANGPTL3(17-460)-His (human) (UniProt Q9Y5C1); test: SPR Biacore, 25C, pH 7.4

- binding [1]: binds
- binding [2]: binds
B1: H4H1282P (antibody, IgG4, V domains shown)
VH: EVQLVQSGGGVVQPGRSLRLSCAASGFTFSNYGMHWVRQAPGKGLEWVAVVWYDGDNKYYADSVKGRFTISRDNSKNTLYLQMNSLRAEDTAVYYCARDIITSRPTLDYWGQGTLVTVSS
VL: DIQLTQSPSFLSASVGDRVTITCWASQGINSYLAWYQQKPGKAPKLLIYPASTLQSGVPSRFSGSGSGTEFTLTISSLQPVDFATYYCQQLNSYPLTFGGGTKVEIKR
